Measurements reported in article PMC3820651, “Cyclic Nucleotide Dependent Dephosphorylation of Regulator of G-Protein Signaling 18 in Human Platelets” (PLoS ONE, 2013).
These are yes or no findings as the source states them, for the method shown. Binding seen in cells or lysates may run through a third protein. Some entries that bind do so weakly or less than the wild type. Sequences can lack the tags named with a protein.

Biological target: T1, GST-tagged 14-3-3γ (UniProt P61981 1-247)
T1 construct: 14-3-3γ, in the bacterial expression vector pGEX-4T3; Held on glutathione sepharose 4B as bait; also called GST-14-3-3γ; GST-14-3-3
T1 sequence (looked up): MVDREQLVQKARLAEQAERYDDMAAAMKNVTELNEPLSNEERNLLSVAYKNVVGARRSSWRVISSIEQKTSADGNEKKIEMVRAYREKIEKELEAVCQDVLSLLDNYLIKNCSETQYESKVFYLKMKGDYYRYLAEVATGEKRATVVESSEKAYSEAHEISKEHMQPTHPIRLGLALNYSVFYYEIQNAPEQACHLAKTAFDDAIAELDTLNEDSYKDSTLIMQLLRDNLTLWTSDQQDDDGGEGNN
Test: pull-down; glutathione sepharose 4B saturated with purified GST-14-3-3γ, incubated with lysates of transfected HEK293T cells; cells without or with 10 µM forskolin (time course or 15 min), RGS18 alone or co-expressed with myc-spinophilin and/or VSV-PP1 catalytic subunit; precipitates blotted with anti-RGS18 or anti-FLAG; only the target purified

B1: FLAG-tagged S216A mutant RGS18 (protein, UniProt Q9NS28 1-235)
chain: METTLLFFSQINMCESKEKTFFKLIHGSGKEETSKEAKIRAKEKRNRLSLLVQKPEFHEDTRSSRSGHLAKETRVSPEEAVKWGESFDKLLSHRDGLEAFTRFLKTEFSEENIEFWIACEDFKKSKGPQQIHLKAKAIYEKFIQTDAPKEVNLDFHTKEVITNSITQPTLHSFDAAQSRVYQLMEQDSYTRFLKSDIYLDLMEGRPQRPTNLRRRARSFTCNEFQDVQSDVAIWL
modifications: phosphoserine at S49 (s3 band present in S216A)
In the case of B1, the binding is reported as “binds”.
